Results published in article doi:10.1101/2022.05.04.490592.
No constants are given. Whether binding was seen depends on the method and setting. Binding seen in cells or lysates may run through a third protein. Some entries that bind do so weakly or less than the wild type.

By UniProt entry, the sequences of proteins in these tests, tags left out.
UniProt Q9NP66: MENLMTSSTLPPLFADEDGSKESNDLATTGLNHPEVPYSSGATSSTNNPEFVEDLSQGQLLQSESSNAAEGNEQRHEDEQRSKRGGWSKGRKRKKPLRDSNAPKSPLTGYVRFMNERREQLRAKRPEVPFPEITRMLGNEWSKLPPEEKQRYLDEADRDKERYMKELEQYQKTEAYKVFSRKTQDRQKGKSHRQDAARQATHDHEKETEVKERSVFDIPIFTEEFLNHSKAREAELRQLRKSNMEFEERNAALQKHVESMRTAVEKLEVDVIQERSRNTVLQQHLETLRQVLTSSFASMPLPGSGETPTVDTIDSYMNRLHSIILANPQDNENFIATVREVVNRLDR
UniProt Q14839: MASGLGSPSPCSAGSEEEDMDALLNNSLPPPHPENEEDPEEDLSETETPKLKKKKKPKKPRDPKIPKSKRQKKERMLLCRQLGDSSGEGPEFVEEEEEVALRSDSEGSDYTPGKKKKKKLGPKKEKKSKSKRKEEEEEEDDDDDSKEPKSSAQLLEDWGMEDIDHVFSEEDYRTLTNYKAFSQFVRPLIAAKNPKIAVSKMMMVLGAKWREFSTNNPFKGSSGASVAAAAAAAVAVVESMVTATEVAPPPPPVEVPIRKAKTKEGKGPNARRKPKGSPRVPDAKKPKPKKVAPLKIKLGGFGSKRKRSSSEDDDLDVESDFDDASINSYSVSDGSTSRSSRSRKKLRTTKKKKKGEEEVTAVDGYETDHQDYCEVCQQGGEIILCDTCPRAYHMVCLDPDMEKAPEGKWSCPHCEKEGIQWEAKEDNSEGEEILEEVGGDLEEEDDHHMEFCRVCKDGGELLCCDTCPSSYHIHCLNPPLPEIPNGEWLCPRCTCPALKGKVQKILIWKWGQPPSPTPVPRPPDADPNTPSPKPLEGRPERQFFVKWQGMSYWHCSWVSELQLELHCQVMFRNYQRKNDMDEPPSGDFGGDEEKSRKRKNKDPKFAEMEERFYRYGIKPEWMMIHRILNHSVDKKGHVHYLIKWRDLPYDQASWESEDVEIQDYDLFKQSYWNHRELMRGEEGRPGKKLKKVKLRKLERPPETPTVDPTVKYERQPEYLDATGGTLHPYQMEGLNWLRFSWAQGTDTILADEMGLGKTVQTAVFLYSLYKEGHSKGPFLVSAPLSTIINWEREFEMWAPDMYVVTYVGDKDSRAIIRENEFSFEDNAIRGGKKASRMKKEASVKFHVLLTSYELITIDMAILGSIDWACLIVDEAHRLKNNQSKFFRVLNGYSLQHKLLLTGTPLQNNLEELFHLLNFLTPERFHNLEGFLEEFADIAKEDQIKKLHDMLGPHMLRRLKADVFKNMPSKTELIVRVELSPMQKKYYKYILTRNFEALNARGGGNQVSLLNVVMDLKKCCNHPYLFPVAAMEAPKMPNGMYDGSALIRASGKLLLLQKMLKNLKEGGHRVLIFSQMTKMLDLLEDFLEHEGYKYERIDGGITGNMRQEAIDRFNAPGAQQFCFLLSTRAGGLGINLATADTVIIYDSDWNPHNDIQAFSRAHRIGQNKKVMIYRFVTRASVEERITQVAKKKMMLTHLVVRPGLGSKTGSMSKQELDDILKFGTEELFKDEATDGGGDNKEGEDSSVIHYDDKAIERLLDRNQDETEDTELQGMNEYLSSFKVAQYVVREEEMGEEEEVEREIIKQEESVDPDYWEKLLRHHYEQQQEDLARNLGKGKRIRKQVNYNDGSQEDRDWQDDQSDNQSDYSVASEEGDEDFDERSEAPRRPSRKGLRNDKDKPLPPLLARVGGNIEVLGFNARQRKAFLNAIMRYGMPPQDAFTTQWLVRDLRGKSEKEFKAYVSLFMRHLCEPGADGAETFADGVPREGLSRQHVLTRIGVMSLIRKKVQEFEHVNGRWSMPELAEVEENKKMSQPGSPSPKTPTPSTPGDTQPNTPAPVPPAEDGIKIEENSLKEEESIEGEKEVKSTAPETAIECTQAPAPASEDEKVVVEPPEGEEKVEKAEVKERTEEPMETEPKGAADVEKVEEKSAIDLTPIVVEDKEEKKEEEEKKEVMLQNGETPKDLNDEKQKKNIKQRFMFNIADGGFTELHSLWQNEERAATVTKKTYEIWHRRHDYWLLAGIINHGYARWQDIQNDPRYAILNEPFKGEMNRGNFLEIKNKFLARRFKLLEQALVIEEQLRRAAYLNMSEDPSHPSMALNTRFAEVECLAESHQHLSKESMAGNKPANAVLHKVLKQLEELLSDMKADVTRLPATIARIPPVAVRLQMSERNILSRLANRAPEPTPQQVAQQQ
UniProt Q13547: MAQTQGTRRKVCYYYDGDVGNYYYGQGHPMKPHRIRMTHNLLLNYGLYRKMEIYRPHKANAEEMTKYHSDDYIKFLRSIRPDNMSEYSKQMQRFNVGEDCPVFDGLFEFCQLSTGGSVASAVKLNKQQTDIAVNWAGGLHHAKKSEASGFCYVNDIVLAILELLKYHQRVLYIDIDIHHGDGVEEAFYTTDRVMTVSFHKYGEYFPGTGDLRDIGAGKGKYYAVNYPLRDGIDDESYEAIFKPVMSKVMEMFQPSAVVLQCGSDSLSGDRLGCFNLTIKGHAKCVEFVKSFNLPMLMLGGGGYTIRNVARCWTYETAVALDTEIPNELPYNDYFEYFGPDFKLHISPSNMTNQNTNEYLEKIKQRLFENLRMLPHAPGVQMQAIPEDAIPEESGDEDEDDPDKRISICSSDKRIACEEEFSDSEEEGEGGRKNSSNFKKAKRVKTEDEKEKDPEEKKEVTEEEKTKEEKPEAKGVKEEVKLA
UniProt Q92769: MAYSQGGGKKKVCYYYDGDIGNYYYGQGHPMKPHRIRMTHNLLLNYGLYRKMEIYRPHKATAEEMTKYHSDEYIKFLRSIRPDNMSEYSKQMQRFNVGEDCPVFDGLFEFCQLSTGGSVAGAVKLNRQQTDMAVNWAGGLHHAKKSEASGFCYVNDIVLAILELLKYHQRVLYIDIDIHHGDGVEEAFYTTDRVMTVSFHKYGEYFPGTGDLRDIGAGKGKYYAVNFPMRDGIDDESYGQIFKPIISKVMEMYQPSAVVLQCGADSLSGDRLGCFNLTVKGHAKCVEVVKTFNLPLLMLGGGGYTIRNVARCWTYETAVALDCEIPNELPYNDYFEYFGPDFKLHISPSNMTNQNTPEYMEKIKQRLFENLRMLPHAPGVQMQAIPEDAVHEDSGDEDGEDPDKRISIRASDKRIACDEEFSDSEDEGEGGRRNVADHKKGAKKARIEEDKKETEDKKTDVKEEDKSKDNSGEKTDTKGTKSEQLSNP
UniProt Q9UBB5: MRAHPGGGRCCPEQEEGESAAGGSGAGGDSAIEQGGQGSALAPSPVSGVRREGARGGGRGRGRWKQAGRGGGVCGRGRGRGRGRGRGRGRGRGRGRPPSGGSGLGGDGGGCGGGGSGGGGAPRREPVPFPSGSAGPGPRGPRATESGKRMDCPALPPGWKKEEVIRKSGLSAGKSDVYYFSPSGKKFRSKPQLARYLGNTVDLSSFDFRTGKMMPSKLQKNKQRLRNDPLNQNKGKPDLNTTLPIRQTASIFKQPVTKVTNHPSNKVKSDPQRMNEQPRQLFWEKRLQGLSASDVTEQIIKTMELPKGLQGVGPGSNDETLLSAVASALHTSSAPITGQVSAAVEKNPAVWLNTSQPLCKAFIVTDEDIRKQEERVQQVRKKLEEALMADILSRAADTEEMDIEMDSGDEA

Tests used:
[1] = molecular target: GFP-HMG20A, co-transfected in HEK293 (Expi293F) cells (human) (UniProt Q9NP66); assay: co-IP
[2] = molecular target: GFP-HMG20A (N-terminally GFP-tagged High Mobility Box 20A), stably expressed in HeLa Kyoto cells (human) (UniProt Q9NP66); assay: co-IP

Molecule | binding [1] | binding [2]
FLAG-CHD4 (from UniProt Q14839 1-1912) | binds | –
HDAC1-FLAG (from UniProt Q13547 1-482) | binds | –
HDAC2, endogenous in HeLa Kyoto cells (from UniProt Q92769 1-488) | – | binds
MBD2, endogenous in HeLa Kyoto cells (from UniProt Q9UBB5 1-411) | – | binds
HMG20B (protein, UniProt Q9P0W2 1-317) MSHGPKQPGAAAAPAGGKAPGQHGGFVVTVKQERGEGPRAGEKGSHEEEPVKKRGWPKGKKRKKILPNGPKAPVTGYVRFLNERREQIRTRHPDLPFPEITKMLGAEWSKLQPTEKQRYLDEAEREKQQYMKELRAYQQSEAYKMCTEKIQEKKIKKEDSSSGLMNTLLNGHKGGDCDGFSTFDVPIFTEEFLDQNKAREAELRRLRKMNVAFEEQNAVLQRHTQSMSSARERLEQELALEERRTLALQQQLQAVRQALTASFASLPVPGTGETPTLGTLDFYMARLHGAIERDPAQHEKLIVRIKEILAQVASEHL | – | binds
zinc finger protein ZNF512B (protein, UniProt Q96KM6 1-892) MTDPFCVGGRRLPGSSKSGPGKDGSRKEVRLPMLHDPPKMGMPVVRGGQTVPGQAPLCFDPGSPASDKTEGKKKGRPKAENQALRDIPLSLMNDWKDEFKAHSRVKCPNSGCWLEFPSIYGLKYHYQRCQGGAISDRLAFPCPFCEAAFTSKTQLEKHRIWNHMDRPLPASKPGPISRPVTISRPVGVSKPIGVSKPVTIGKPVGVSKPIGISKPVSVGRPMPVTKAIPVTRPVPVTKPVTVSRPMPVTKAMPVTKPITVTKSVPVTKPVPVTKPITVTKLVTVTKPVPVTKPVTVSRPIVVSKPVTVSRPIAISRHTPPCKMVLLTRSENKAPRATGRNSGKKRAADSLDTCPIPPKQARPENGEYGPSSMGQSSAFQLSADTSSGSLSPGSRPSGGMEALKAAGPASPPEEDPERTKHRRKQKTPKKFTGEQPSISGTFGLKGLVKAEDKARVHRSKKQEGPGPEDARKKVPAAPITVSKEAPAPVAHPAPGGPEEQWQRAIHERGEAVCPTCNVVTRKTLVGLKKHMEVCQKLQDALKCQHCRKQFKSKAGLNYHTMAEHSAKPSDAEASEGGEQEERERLRKVLKQMGRLRCPQEGCGAAFSSLMGYQYHQRRCGKPPCEVDSPSFPCTHCGKTYRSKAGHDYHVRSEHTAPPPEEPTDKSPEAEDPLGVERTPSGRVRRTSAQVAVFHLQEIAEDELARDWTKRRMKDDLVPETARLNYTRPGLPTLNPQLLEAWKNEVKEKGHVNCPNDCCEAIYSSVSGLKAHLASCSKGAHLAGKYRCLLCPKEFSSESGVKYHILKTHAENWFRTSADPPPKHRSQDSLVPKKEKKKNLAGGKKRGRKPKERTPEEPVAKLPPRRDDWPPGCRDKGARGSTGRKVGVSKAPEK | – | binds
